Measured data: PubChem BioAssay AID652259 (Drosophila RNAi Screening Center, 2013)
Purpose: 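Genome-wide hunt for genes that control Wingless pathway activity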 (primary screen). System: Drosophila clone 8 imaginal disc epithelial cells. Knock-down reagent: long dsRNA against Drosophila genes. Conditions: pathway stimulated by co-transfected Wingless expression plasmid. Detection: 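Firefly luciferase from a tcf-site Wingless reporter, measured alongside co-transfected Renilla luciferase that tracks transfection; pathway stimulated by a Wingless plasmid; the firefly-to-Renilla ratio is not deposited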. Direction: firefly reporter light: higher = more Wg reporter light, before normalisation; Renilla control light: higher = more transfected or surviving cells. Rule for the call: 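a knock-down is a candidate when at least two out of four statistical tests show it departing from its plate mean; one test alone signals a weak candidate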. Meaning of the calls: active = candidate regulator (raises or lowers reporter); inactive = not a candidate.
In all, the deposit lists about 22,000 reagents; shown is a random part of those that have a named target and a result. Over the whole deposit, 233 (1.1%) were called active. 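Light values are raw, unnormalised plate reads; the ratio scores behind the reporter calls were not deposited.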 Unmarked entries are inactive. A plus sign joins genes that one reagent is predicted to hit. The record does not give: the amount of reagent, the time to read-out, the dose of the treatment.

For CG10553 [DRSC14254], how do the results read?
firefly reporter light, replicate 1: 19984; Renilla control light, replicate 1: 26547

For Cul4 [DRSC07243], what was measured?
firefly reporter light, replicate 1: 4725; Renilla control light, replicate 1: 1085

For EMC2B + EMC2A [DRSC15241], how do the results read?
firefly reporter light, replicate 1: 21772; Renilla control light, replicate 1: 4713

What did the screen give for Or85e [DRSC16768]?
firefly reporter light, replicate 1: 12876; Renilla control light, replicate 1: 4746

Which result is listed for CG30393 [DRSC04253]?
firefly reporter light, replicate 1: 2512; firefly reporter light, replicate 2: 5792; Renilla control light, replicate 1: 615; Renilla control light, replicate 2: 2968

For Arglu1 [DRSC02909], what was measured?
firefly reporter light, replicate 1: 2289; firefly reporter light, replicate 2: 5893; Renilla control light, replicate 1: 936; Renilla control light, replicate 2: 2832

For CG6793 [DRSC10714], what was measured?
firefly reporter light, replicate 1: 8842; Renilla control light, replicate 1: 2937

With CG10543 [DRSC04081], how do the results read?
firefly reporter light, replicate 1: 3536; firefly reporter light, replicate 2: 9232; Renilla control light, replicate 1: 403; Renilla control light, replicate 2: 1420

What is on record for CG42362 + CG42363 [DRSC04265]?
firefly reporter light, replicate 1: 9451; Renilla control light, replicate 1: 1972

What did the screen give for CG9682 [DRSC16536]?
firefly reporter light, replicate 1: 2244; firefly reporter light, replicate 2: 7079; Renilla control light, replicate 1: 1056; Renilla control light, replicate 2: 2236

What did the screen give for Nepl19 [DRSC14875]?
firefly reporter light, replicate 1: 3805; Renilla control light, replicate 1: 1313

What did the screen give for NSD [DRSC15691]?
firefly reporter light, replicate 1: 5788; Renilla control light, replicate 1: 2832

For Fic [DRSC03247], what was measured?
firefly reporter light, replicate 1: 13040; Renilla control light, replicate 1: 5488

For CG13639 [DRSC14638], how do the results read?
firefly reporter light, replicate 1: 26667; Renilla control light, replicate 1: 22890

With BRWD3 [DRSC15369], what was measured?
firefly reporter light, replicate 1: 6569; firefly reporter light, replicate 2: 8733; Renilla control light, replicate 1: 1065; Renilla control light, replicate 2: 1456

With BRWD3 [DRSC16032], how do the results read?
firefly reporter light, replicate 1: 19756; Renilla control light, replicate 1: 10050

For Yp2 [DRSC18732], what does the deposit list?
firefly reporter light, replicate 1: 2551; firefly reporter light, replicate 2: 4395; Renilla control light, replicate 1: 874; Renilla control light, replicate 2: 1808
